Experimental data reported in patent publication US11160280B2, “Pesticial compounds” (BASF SE, priority 2017, dated 2021).
Some entries share one result that the patent states for a list of compounds.

How the values were obtained:
Format in all cases: in vivo
[1] = tested on: Orchid thrips (Dichromothrips corbetti); experiment: Action on orchid thrips (Dichromothrips corbetti), floral-immersion technique; details: 500 ppm; adult thrips, mortality 72 hours after treatment
Description: Example B2: Action on Orchid thrips (Dichromothrips corbetti)
Dichromothrips corbetti adults used for bioassay were obtained from a colony maintained continuously under laboratory conditions. For testing purposes, the test compound is diluted in a 1:1 mixture of acetone:water (vol:vol), plus Kinetic® HV at a rate of 0.01% v/v.
Thrips potency of each compound was evaluated by using a floral-immersion technique. All petals of individual, intact orchid flowers were dipped into treatment solution and allowed to dry in Petri dishes. Treated petals were placed into individual re-sealable plastic along with about […]. All test arenas were held under continuous light and a temperature of about 28° C. for duration of the assay. After 3 days, the numbers of live thrips were counted on each petal. The percent mortality was recorded 72 hours after treatment.

[2] = tested on: boll weevil (Anthonomus grandis); experiment: Action on boll weevil (Anthonomus grandis), eggs on insect diet in microtiter plates; details: 800 ppm; egg and larval mortality after 5 days
Description: Example B3: Action on Boll Weevil (Anthonomus grandis)
For evaluating control of boll weevil (Anthonomus grandis) the test unit consisted of 96-well-microtiter plates containing an insect diet and 5-10 A. grandis eggs.
The compounds were formulated using a solution containing 75% v/v water and 25% v/v DMSO. Different concentrations of formulated compounds were sprayed onto the insect diet at 5 μl, using a custom built micro atomizer, at two replications.
After application, microtiter plates were incubated at about 25±1° C. and about 75±5% relative humidity for 5 days. Egg and larval mortality was then visually assessed.

[3] = tested on: Silverleaf Whitefly (Bemisia argentifoli) (Adults); experiment: Action on silverleaf whitefly (Bemisia argentifoli) adults on sprayed cotton plants; details: 300 ppm, mortality 3 days after treatment
Description: Example B4: Action on Silverleaf Whitefly (Bemisia argentifoli) (Adults)
(§1) The active compounds were formulated by a Tecan liquid handler in 100% cyclohexanone as a 10,000 ppm solution supplied in tubes. The 10,000 ppm solution was serially diluted in 100% cyclohexanone to make interim solutions. These served as stock solutions for which final dilutions were made by the Tecan in 50% acetone:50% water (v/v) into 5 or 10 ml glass vials. A nonionic surfactant (Kinetic®) was included in the solution at a volume of 0.01% (v/v). The vials were then inserted into an automated electrostatic sprayer equipped with an atomizing nozzle for application to plants/insects.
Cotton plants at the cotyledon stage (one plant per pot) were sprayed by an automated electrostatic plant sprayer equipped with an atomizing spray nozzle. The plants were dried in the sprayer fume hood and then removed from the sprayer. Each pot was pla-ced into a plastic cup and about 10 to 12 whitefly adults (approximately 3-5 days old) were introduced. The insects were collected using an aspirator and a nontoxic Tygon® tubing connected to a barrier pipette tip. The tip, containing the collected insects, was then gently inserted into the soil containing the treated plant, allowing insects to crawl out of the tip to reach the foliage for feeding. Cups were covered with a reusable screened lid. Test plants were maintained in a growth room at about 25° C. and about 20-40% relative humidity for 3 days, avoiding direct exposure to fluorescent light (24 hour photoperiod) to prevent trapping of heat inside the cup. Mortality was assessed 3 days after treatment, compared to untreated control plants.

[4] = tested on: Diamond Back Moth (Plutella xylostella); experiment: Action on diamond back moth (Plutella xylostella), cabbage leaf dip; details: 500 ppm; 3rd instar larvae on dipped cabbage leaves, mortality 72 hours after treatment
Description: Example B6: Action on Diamond Back Moth (Plutella xylostella)
The active compound is dissolved at the desired concentration in a mixture of 1:1 (vol:vol) distilled water:acetone. Surfactant (Kinetic® HV) is added at a rate of 0.01% (vol/vol). The test solution is prepared at the day of use.
Leaves of cabbage were dipped in test solution and air-dried. Treated leaves were placed in petri dishes lined with moist filter paper and inoculated with ten 3rd instar larvae. Mortality was recorded 72 hours after treatment. Feeding damages were also recorded using a scale of 0-100%.

[5] = tested on: yellow fever mosquito (Aedes aegypti); details: 800 ppm; larval mortality visually assessed after 2 days
Description: Example B1: Action on Yellow Fever Mosquito (Aedes aegypti)
For evaluating control of yellow fever mosquito (Aedes aegypti) the test unit consisted of 96-well-microtiter plates containing 200 μl of tap water per well and 5-15 freshly hatched A. aegypti larvae.
The active compounds were formulated using a solution containing 75% (v/v) water and 25% (v/v) DMSO. Different concentrations of formulated compounds or mixtures were sprayed onto the insect diet at 2.5 μl, using a custom built micro atomizer, at two replications.
After application, microtiter plates were incubated at 28+1° C., 80+5% RH for 2 days. Larval mortality was then visually assessed.

[6] = tested on: tobacco budworm (Heliothis virescens); experiment: Action on tobacco budworm (Heliothis virescens), eggs on insect diet in microtiter plates; details: 800 ppm; egg and larval mortality after 5 days
Description: Example B5: Action on Tobacco Budworm (Heliothis virescens)
For evaluating control of tobacco budworm (Heliothis virescens) the test unit consisted of 96-well-microtiter plates containing an insect diet and 15-25 H. virescens eggs.
The compounds were formulated using a solution containing 75% v/v water and 25% v/v DMSO. Different concentrations of formulated compounds were sprayed onto the insect diet at 10 μl, using a custom built micro atomizer, at two replications.
After application, microtiter plates were incubated at about 28±1° C. and about 80±5% relative humidity for 5 days. Egg and larval mortality was then visually assessed.

[7] = tested on: Southern Armyworm (Spodoptera eridania), 2nd Instar Larvae; experiment: Action on southern armyworm (Spodoptera eridania), 2nd instar larvae on sprayed lima bean plants; details: 300 ppm; 2nd instar larvae on lima bean plants, 4 days after treatment
Description: Example B7: Action on Southern Armyworm (Spodoptera eridania), 2nd Instar Larvae
as §1, with “into 10” for “into 5”, “or 20” for “or 10”
Lima bean plants (variety Sieva) were grown 2 plants to a pot and selected for treatment at the 1st true leaf stage. Test solutions were sprayed onto the foliage by an automated electrostatic plant sprayer equipped with an atomizing spray nozzle. The plants were dried in the sprayer fume hood and then removed from the sprayer. Each pot was placed into perforated plastic bags with a zip closure. About 10 to 11 armyworm larvae were placed into the bag and the bags zipped closed. Test plants were maintained in a growth room at about 25° C. and about 20-40% relative humidity for 4 days, avoiding direct exposure to fluorescent light (24 hour photoperiod) to prevent trapping of heat inside the bags. Mortality and reduced feeding were assessed 4 days after treatment, compared to untreated control plants.

Measured: mortality in comparison with untreated controls

COC1C(C)OC(ON=Cc2ccc3c(COc4ccc(OC(F)(F)F)cc4)nn(C)c3c2)C(OC)C1OC (centres unmarked) [Example C-28]
at least 75%: [1] | [2] | [3] | [4]

CC(C)c1ccccc1NC(=S)NN=Cc1ccc2c(COc3ccc(OC(F)(F)C(F)(F)F)cc3)nn(C)c2c1 [Example C-39]
at least 75%: all assays above

CC(C)c1ccccc1N1C(=O)CSC1=NN=Cc1ccc2c(COc3ccc(OC(F)(F)C(F)(F)F)cc3)nn(C)c2c1 [Example C-40]
at least 75%: all assays above

CCn1nc(COc2ccc(OC(F)(F)F)cc2)c2ccc(C=NN=C3SCC(=O)N3c3ccccc3C(C)C)cc21 [Example C-42]
at least 75%: all assays above

CCCOC1C(OC)C(C)OC(OC(=O)Nc2ccc3c(C(=O)Nc4ccc(OC(F)(F)F)cc4)nn(C)c3c2)C1OC (centres unmarked) [Example C-55]
not listed: [1] | [5]
at least 75%: all other assays above

COC1C(C)OC(OC(=O)Nc2ccc3c(C(=O)N(C)c4ccc(OC(F)(F)F)cc4)nn(C)c3c2)C(OC)C1OC (centres unmarked) [Example C-56]
not listed: [5] | [7]
at least 75%: all other assays above
